Where a name gives a salt, the structure may show the parent alone. The list shows a part of the results. Most values come without repeats; read them as rough.
The compounds below were run on SK-N-BE(2) (assay: inhibition of N-Myc immunofluorescence signal per cell relative to control (fraction); higher = stronger N-Myc protein reduction). Details: 1 µM; 9 h.

SMILES | inhibition of N-Myc immunofluorescence signal per cell
CC(C)(CNC(=O)c1cccc(-c2noc(C(F)(F)F)n2)c1)c1coc(-c2ccccc2)n1 | 0.0444
COc1cc(/C=C/C(=O)CC(=O)/C=C/c2ccc(O)c(OC)c2)ccc1O [Curcumin] | -0.00535
NS(=O)(=O)OC[C@@H]1C[C@@H](n2ccc3c(N[C@H]4CCc5ccccc54)ncnc32)C[C@@H]1O [Pevonedistat] | -0.0553
CC(C)N(CCCNC(=O)Nc1ccc(C(C)(C)C)cc1)C[C@H]1O[C@@H](n2ccc3c(N)ncnc32)[C@H](O)[C@@H]1O | -0.209
COc1cc2c(NC3CCN(C(C)C)CC3)nc(N3CCC(F)(F)CC3)nc2cc1OCCCN1CCCC1 | -0.0806
Nc1c(C(=O)c2ccccc2)sc2[nH]c(=O)c(C(=O)O)cc12 | 0.252
CN(CCCNC(=O)c1ccc2nc3c(c(Cl)c2c1)CCCC3)Cc1ccccc1 | 0.23
CCOC(=O)CCNc1cc(N2CCc3ccccc3CC2)nc(-c2ccccn2)n1 | 0.193
O=C(NO)c1ccc(CC(=O)N(CCO)c2ccccc2)cc1 | -0.117
COc1cc(N(C)C)cc(CN(C)CCc2ccc([N+](=O)[O-])cc2)c1O | -0.109
CC(C)C[C@H](NC(=O)CNC(=O)c1cc(Cl)ccc1Cl)B(O)O [Ixazomib] | -0.38
COc1cc2c(cc1OCCCN1CCCC1)N=C(N)C21CCC1 | 0.0203
O=C(O)CNC(=O)c1ncc(-c2cccc(Cl)c2)cc1O [Vadadustat] | 0.0245
O=C(CCc1ccccc1)N1CCC(O)(Cn2cnc3cc(Cl)ccc3c2=O)CC1 | -0.0262
O=C(Nc1ccc2c(O)cc(S(=O)(=O)O)cc2c1)Nc1ccc2c(O)cc(S(=O)(=O)O)cc2c1 | -0.146
CCN(CC)Cc1ccc2cc(COC(=O)Nc3ccc(C(=O)NO)cc3)ccc2c1 [Givinostat (hydrochloride monohydrate)] | -0.136
Cn1cc(/C=C/C(=O)c2cccc(F)c2)cc1/C=C/C(=O)NO | 0.0357
COc1ccc(C[C@H](NC(=O)[C@H](C)NC(=O)CN2CCOCC2)C(=O)N[C@@H](Cc2ccccc2)C(=O)C2(C)CO2)cc1 (stereo in doubt) | -0.487

SMILES | inhibition of N-Myc immunofluorescence signal per cell
CC(=O)c1cc([N+](=O)[O-])c(Sc2cccc(Cl)c2Cl)s1 | 0.148
O=C(NCC1(c2nc(-c3ccccc3)cs2)CCOCC1)c1cccc(-c2noc(C(F)(F)F)n2)c1 | -0.0101
O=C(CCCCCCC(=O)N/N=C/c1ccc(N(c2ccccc2)c2ccccc2)cc1)NO | 0.0108
O=C1CCC(N2Cc3cc(O)ccc3C2=O)C(=O)N1 (stereo not given) [Lenalidomide-OH] | 0.122
Cc1cn(CCN2CCN(c3ccccc3-c3cc(C#N)cc(C(=O)NCCCN4CCCC4)c3)CC2)c2ccccc12 | -0.216
COc1cc2c(cc1OC(C)C)[C@H](c1ccc(Cl)cc1)N(c1ccc(N(C)C[C@H]3CC[C@H](N4CCN(C)C(=O)C4)CC3)cc1)C(=O)C2 | 0.12
CCCCN1CCC(N(Cc2ccccc2)C(=O)Nc2ccc(Cl)c(Cl)c2)CC1 | 0.11
Cn1cc(-c2ccc(S(=O)(=O)n3ccc(/C=C/C(=O)Nc4ccccc4N)c3)cc2)cn1 [Domatinostat] | 0.292
c1ccc([C@H]2CN3CCSC3=N2)cc1 [Levamisole (hydrochloride)] | 0.15
O=c1c(-n2ccnn2)c[nH]n1-c1cc(N2CCOCC2)ncn1 [Molidustat] | 0.0447
O=C(NCCc1nccs1)c1cnc2c(SSc3cccc4cc(C(=O)NCCc5nccs5)cnc34)cccc2c1 [Capzimin] | -0.00964
O=C(O)COc1ccc(Br)cc1/C=C1\SC(=S)N(Cc2cccnc2)C1=O [Skp2 Inhibitor C1] | 0.267
Cn1ncnc1[C@H]1c2n[nH]c(=O)c3cc(F)cc(c23)N[C@@H]1c1ccc(F)cc1 [Talazoparib] | 0.101
O=C1c2ccccc2C(=O)c2oc(-c3cccnc3)nc21 | 0.256
O=C([C@@H](Cc1cccc(C(F)(F)F)c1)NS(=O)(=O)c1cc(F)c2c(c1)CCNC2)N1CCCC1 [PFI-2 (hydrochloride)] | 0.0556
N#Cc1c(N)[nH]c2cc(/C=C/c3cccc(F)c3)ccc12 | 0.109
O=c1cc(-c2ccc(O)c(O)c2O)oc2ccccc12 | 0.0963

Reprinted at random: two entries already listed, in no set order.
SMILES | inhibition of N-Myc immunofluorescence signal per cell
O=C(NCC1(c2nc(-c3ccccc3)cs2)CCOCC1)c1cccc(-c2noc(C(F)(F)F)n2)c1 | -0.0101
O=c1cc(-c2ccc(O)c(O)c2O)oc2ccccc12 | 0.0963
